Measurements published in PubChem BioAssay AID1794845 (National Center for Advancing Translational Sciences (NCATS), 2023).
The campaign covered roughly 6,900 compounds. Fewer than 10 were called active. The call rests on the fitted dose curve; in most records, active means well fitted curve in the direction sought with a large enough effect; inconclusive means small, poorly fitted or top-dose-only effect, or another doubt; inactive means no such curve, though single readings can be large or run the other way. The list shows a part of the results.

The chains behind the UniProt entries cited, without tags or fusion partners. Where a name states a change or a piece, a line headed by the entry shows the natural chain unless it says otherwise.
UniProt C7C422: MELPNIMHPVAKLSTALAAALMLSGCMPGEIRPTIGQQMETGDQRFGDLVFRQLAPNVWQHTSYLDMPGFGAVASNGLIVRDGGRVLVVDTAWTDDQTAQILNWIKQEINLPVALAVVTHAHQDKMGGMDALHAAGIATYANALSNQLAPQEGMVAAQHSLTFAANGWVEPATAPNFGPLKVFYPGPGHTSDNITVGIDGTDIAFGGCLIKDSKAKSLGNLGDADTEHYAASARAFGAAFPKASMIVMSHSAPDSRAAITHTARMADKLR

Target: Metallo-beta-lactamase type 2 (Klebsiella pneumoniae) (UniProt C7C422)
Test: qHTS to identify inhibitors of the New Delhi Metallo-beta-lactamase (NDM): primary screen against the NCATS Gemini Collection; further: % of control where 0% means no effect
Conditions: NDM-1 enzyme, meropenem hydrolysis, absorbance 300 nm; at 38.4 µM (top of the series) unless noted
Summary of the method: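 NDM-1 at 2 nM final in 50 mM HEPES pH 7.0, 1 uM ZnSO4, 0.01% Tween20, preincubated >30 min with compound. Meropenem 50 uM final added; absorbance at 300 nm after 30 min.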

Activity % (negative = inhibition), inactive:
Cc1noc(C)c1Cc1ccc(C(=O)N2CC(N(C)Cc3cccnc3)C2)o1 -1.37%
O=C1NC2(CCN(C(=O)c3cccnc3)C2)Oc2ccccc21 (stereo not given) 3.52% [at 57.5 µM]
O=C(NCCCc1ccccc1)C1CCCCN1Cc1ccc(-c2ccsc2)cc1 (stereo not given) 13.5%
COc1cc(OC)cc(-c2onc(C)c2C(=O)NCc2ccccc2C)c1 0.744%
O=C(NC1CCCC1)c1cc(-c2cccc(C(F)(F)F)c2)c2cccn2n1 12.7%
CN(C)C(=O)c1ccc(OC2CCN(C(=O)c3ccc(C(F)(F)F)cc3)CC2)nc1 0.0207%
Cc1cc(CNC(=O)c2cc(C(C)C)n3ncnc3n2)c2[nH]c(C)c(C)c2c1 52.4%
CS(=O)(=O)N(C1CCOCC1)C1CN(C(=O)NCc2ccccc2)C1 -1.83%
CNC(=O)c1cc(C)nc2onc(C3CCN(C(=O)NC4CCCC4)C3)c12 (stereo not given) 3.31%
N[C@H]1CCCN(C(=O)c2cnc(C34CC5CC(CC(C5)C3)C4)[nH]c2=O)C1 12%
O=C(NCc1ccccc1)N1CCCC(Cn2cnc3cccnc32)C1 (stereo not given) 3.87%
Cc1ccsc1C(=O)C1CCCN(Cc2ccc(OC(C)C)c(CO)c2)C1 (stereo not given) 3.84%
O=C(Nc1ccccc1)N1CCC(N2CC3CCCN3C2=O)CC1 (stereo not given) 6.28% [at 57.5 µM]
O=C(CCc1conc1-c1ccc(F)cc1)NC1CCCCC1 -2.73%
COc1ccc2c(=O)n(CC(=O)N(C)Cc3cc(C)no3)ccc2c1OC 19.3%
Cc1ccc([S+](=O)([O-])N2CCCCC23Cc2ccccc2NC3=O)cc1 (stereo not given) 0.244%
N#Cc1cccnc1-c1cccc(C(=O)NCCNC(=O)c2ccccc2)c1 1.91%
COCCN(CCOC)CC[C@@H]1CC[C@H](O)[C@@H](C(=O)NC2CCCCC2)O1 11% [at 57.5 µM]
CC(=O)N1CC(CO)C2(CCN(C(=O)c3nccc4ccccc34)CC2)C1 (stereo not given) -2.13%
Cc1cc(C)n(CCCN(C)C(=O)C2C3C(=O)N(CCC(C)C)C[C@@]34C=C[C@@H]2O4)n1 (stereo not given in full) 2.52%
CN(C)C[C@@H]1CN(c2ccncn2)C[C@H]1NC(=O)c1nccc2ccccc12 -0.378%
COCC(=O)Nc1ccc(-c2noc([C@@H]3CCCN3Cc3ncc[nH]3)n2)cn1 13.3% [at 57.5 µM]
Fc1ccc(CN2CCn3c(nnc3-c3ccncc3)C2)cc1 -0.0094%
N#Cc1ccc(O[C@@H]2CCOC[C@H]2NC(=O)CN2CCOC2=O)cc1 10.4%
CC(C)CCN1CC[C@@H]2OCC(=O)N(Cc3ccccc3)[C@H]2CC1 4.66% [at 57.5 µM]
c1ccc2c(c1)CCN2c1nccnc1OC1CCNC1 (stereo not given) 29.6%
O=C(Nc1ccc(F)c(Cl)c1)C1=NO[C@@H]2CN(CCc3ccccc3)C[C@H]12 3.66% [at 57.5 µM]
O=C(N[C@H]1C[C@H]2C(=O)NC[C@@H](CCC(=O)N3CCN(c4ccccn4)CC3)N2C1)c1cccs1 -7.77%
COCCN1Cc2[nH]nc(-c3ccsc3)c2CC1=O 1.22% [at 77.1 µM]
CC(=O)Nc1ccc(C2(C(=O)NCc3cccs3)CCCCC2)cc1 0.641%

For reference, part of the list above:
Activity % (negative = inhibition), inactive:
N#Cc1cccnc1-c1cccc(C(=O)NCCNC(=O)c2ccccc2)c1 1.91%
COCCN(CCOC)CC[C@@H]1CC[C@H](O)[C@@H](C(=O)NC2CCCCC2)O1 11% [at 57.5 µM]
CC(=O)N1CC(CO)C2(CCN(C(=O)c3nccc4ccccc34)CC2)C1 (stereo not given) -2.13%
Cc1cc(C)n(CCCN(C)C(=O)C2C3C(=O)N(CCC(C)C)C[C@@]34C=C[C@@H]2O4)n1 (stereo not given in full) 2.52%
CN(C)C[C@@H]1CN(c2ccncn2)C[C@H]1NC(=O)c1nccc2ccccc12 -0.378%
COCC(=O)Nc1ccc(-c2noc([C@@H]3CCCN3Cc3ncc[nH]3)n2)cn1 13.3% [at 57.5 µM]
Fc1ccc(CN2CCn3c(nnc3-c3ccncc3)C2)cc1 -0.0094%
N#Cc1ccc(O[C@@H]2CCOC[C@H]2NC(=O)CN2CCOC2=O)cc1 10.4%
CC(C)CCN1CC[C@@H]2OCC(=O)N(Cc3ccccc3)[C@H]2CC1 4.66% [at 57.5 µM]
